The values below come from US20180325893A1, “SUBACUTE ADMINISTRATION OF NMDA MODULATORS ALONE OR IN COMBINATION” (Northwestern University, priority 2015, published 2018).

Peptide text beside a SMILES is read from it.

Series [1] relates to male C57BL/6J mice. As to the kind of experiment: Novel object recognition (NOR), acute drug treatment / acute ketamine-induced deficit (Example 1). As to conditions: mean±S.E.M. Type of series: in vivo. The method, then: (§1) Three cohorts of male C57BL/6J mice (2½-3 month old, Jackson, Mass., USA), N=40, 45, and 48 were used in Examples 1, 2, 3 respectively. Mice were group housed (five/cage) in a controlled environment held at 21±2° C. and 50±15% relative humidity with a 14:10 h light-dark period (lights on: 05:00 am). All experiments were conducted during the light phase. Food and water were available ad libitum. The mice were habituated to the colony upon arrival for a week, during which time, they were not handled. All experiments were conducted in accordance with Institutional Animal Care and Use Committee of Northwestern University, Chicago.
Rapastinel was obtained from SAI Life Sciences (India). PCP was a generous gift from National Institute of Drug Abuse. Ketamine was purchased from Sigma Aldrich (St. Louis, Mo.). Lurasidone was provided by Sumitomo Dainippon Pharma Co., Ltd. (Osaka, Japan). Rapastinel, PCP, and ketamine were dissolved in 0.9% sterile saline (Sal). PCP and ketamine were administered intraperitoneally (ip), at a volume of 10 mL/kg body weight. Rapastinel was given intravenously (iv). The dose of rapastinel (1.0 mg/kg) was chosen because it produced optimal enhancement in learning in both young adult and aged rats and in a trace eye blink conditioning task in rabbits. […] The dose for lurasidone (0.1 mg/kg) was chosen based on prior NOR studies in C57BL/6J mice which determined the effective dose of lurasidone to restore NOR in subchronic PCP-treated mice. […]
NOR testing in mice was slightly modified from Hashimoto et al (Hashimoto K.; Fujita Y.; Shimizu E.; Iyo M. European Journal of Pharmacology 2005, 519:114-7). […] Behavior was recorded on video for blind scoring of object exploration. […] The discrimination index (DI) [(time spent exploring the novel object—time spent exploring the familiar object)/total exploration time] was then calculated for retention trials. […]

Series [2] has as its system male C57BL/6J mice. The series can be described thus: NOR in subchronic ketamine-treated mice (Examples 2 and 3). Type of series: in vivo. As to conditions: mean±S.E.M. The method, then: as §1
Rapastinel was obtained from SAI Life Sciences (India). PCP was a generous gift from National Institute of Drug Abuse. Ketamine was purchased from Sigma Aldrich (St. Louis, Mo.). Lurasidone was provided by Sumitomo Dainippon Pharma Co., Ltd. (Osaka, Japan). Rapastinel, PCP, and ketamine were dissolved in 0.9% sterile saline (Sal). PCP and ketamine were administered intraperitoneally (ip), at a volume of 10 mL/kg body weight. Rapastinel was given intravenously (iv). The dose of rapastinel (1.0 mg/kg) was chosen because it produced optimal enhancement in learning in both young adult and aged rats and in a trace eye blink conditioning task in rabbits. […] The dose for lurasidone (0.1 mg/kg) was chosen based on prior NOR studies in C57BL/6J mice which determined the effective dose of lurasidone to restore NOR in subchronic PCP-treated mice.
For acute drug treatments, rapastinel (1.0 mg/kg, iv), lurasidone (0.1 mg/kg, i.p.) or ketamine (30 mg/kg, ip) were administered 30 min prior to the acquisition trial of the NOR task (described below) to the subchronic ketamine or subchronic PCP-treated animals. For subchronic drug treatments, 7-10 mice/cohort were randomly assigned to Sal, PCP, or ketamine. The Sal-treated mice received 0.9% NaCl; the drug treatment groups received either PCP (10 mg/kg; ip), or ketamine (30 mg/kg; ip) twice daily for 7 days. This was followed by a 7 day washout period during which time, mice were left undisturbed in the home cage until initiation of habituation (see below).
NOR testing in mice was slightly modified from Hashimoto et al (Hashimoto K.; Fujita Y.; Shimizu E.; Iyo M. European Journal of Pharmacology 2005, 519:114-7). […] Similar observations were made when large objects were used. […] It was observed that C57BL/6J mice explored less when the duration of trials were 3 or 5. […] Behavior was recorded on video for blind scoring of object exploration. […] The discrimination index (DI) [(time spent exploring the novel object—time spent exploring the familiar object)/total exploration time] was then calculated for retention trials. […]

The mark [3] stands for this setting: acute drug plus sal, rapastinel 1.0 mg/kg, ketamine 30 mg/kg.

Consider `CC(O)C(N)C(=O)N1CCCC1C(=O)N1CCCC1C(=O)NC(C(N)=O)C(C)O` (stereo not shown) [rapastinel, Rapastinel] (H-TPPT-NH2; configuration not given here), for which the “total exploration times (acquisition trial+retention trial)” value with male C57BL/6J mice [1] (setting [3]) worked out at 76.8 ± 3.8 s; with male C57BL/6J mice [1] (rapastinel 1.0 mg/kg plus acute ketamine 30 mg/kg), 79.2 ± 8.3 s; in the series with male C57BL/6J mice [2] (Example 2, subchronic ketamine+rapastinel 1.0 mg/kg), 86.2 ± 8.3 s; in the series with male C57BL/6J mice [2] (Example 3, subchronic ketamine plus subeffective dose rapastinel (0.3 mg/kg) and/or lurasidone (0.1 mg/kg)) it was 73.2 ± 4.7 s.

As to `CNC1(c2ccccc2Cl)CCCCC1=O` (stereo not shown) [ketamine, Ketamine, reference compound], the “total exploration times (acquisition trial+retention trial)” value in the series on male C57BL/6J mice [1] (setting [3]) was found to be 82.4 ± 11.0 s; in the series with male C57BL/6J mice [2] (Example 2, subchronic ketamine alone), 80.3 ± 7.2 s; with male C57BL/6J mice [2] (Example 3, subchronic ketamine alone), 86.3 ± 5.2 s.
